Laboratory results taken from PubChem BioAssay AID1671190 (National Center for Advancing Translational Sciences (NCATS), 2021).
Several values for one entry are separate records, joined by “and”; a condition that tells them apart may be missing. Equal entries are not always repeated. Hit rate of the full screen: of about 580,000 compounds, about 6,100 (1.1%) were called active. Inconclusive results, whose numbers are uncertain, are shown with a selection of clear calls. Calls follow the shape of the dose curve; as a rule, active = well fitted inhibition curve with a large enough effect; inconclusive = small, poorly fitted or top-dose-only effect, or another doubt; inactive = no such curve, though single readings can be large or run the other way. Where the call is inconclusive, the potency comes from a doubtful curve fit.

Sequences of proteins named here, by UniProt entry; tags and fusion partners are left off. A change or cut given only in a name is not applied to a line headed by its entry.
UniProt P18054: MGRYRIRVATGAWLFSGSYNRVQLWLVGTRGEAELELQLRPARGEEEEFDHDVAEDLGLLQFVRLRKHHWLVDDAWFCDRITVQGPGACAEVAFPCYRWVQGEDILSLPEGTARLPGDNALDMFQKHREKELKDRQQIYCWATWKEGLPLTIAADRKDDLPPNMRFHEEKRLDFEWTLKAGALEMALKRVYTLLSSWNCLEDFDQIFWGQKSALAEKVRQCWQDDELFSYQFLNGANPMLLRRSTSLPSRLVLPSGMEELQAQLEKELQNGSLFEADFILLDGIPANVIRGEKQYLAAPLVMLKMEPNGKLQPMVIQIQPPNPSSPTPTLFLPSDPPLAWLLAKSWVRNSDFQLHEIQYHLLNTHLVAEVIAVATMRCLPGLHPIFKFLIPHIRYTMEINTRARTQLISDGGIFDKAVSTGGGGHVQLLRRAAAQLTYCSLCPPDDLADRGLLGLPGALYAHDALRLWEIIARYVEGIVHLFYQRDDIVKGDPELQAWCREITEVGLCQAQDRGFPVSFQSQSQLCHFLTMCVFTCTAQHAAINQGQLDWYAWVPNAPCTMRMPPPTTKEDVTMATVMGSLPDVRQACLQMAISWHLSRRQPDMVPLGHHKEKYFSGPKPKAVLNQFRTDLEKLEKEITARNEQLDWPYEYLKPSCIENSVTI

Molecular target: Polyunsaturated fatty acid lipoxygenase ALOX12 (Homo sapiens) (UniProt P18054)
Experiment: Primary qHTS assay for inhibitors of human arachidonate 12S-lipoxygenase (ALOX12): Round 2
Conditions: purified 12hLO, xylenol orange hydroperoxide absorbance; series mostly up to 108 µM
Procedure, shortened: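 Hydroperoxide product was detected by ferrous iron/xylenol orange as the 573 to 405 nm absorbance ratio. Arachidonic acid at 40 uM (final) was turned over for 30 min at room temperature by 150 nM human 12hLO, pH 7.0 Hepes buffer, after 15 min compound preincubation.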
Potency is read from the fitted curve at half-maximal effect.

SMILES | Potency
FC(F)(F)c1ccccc1N/N=C1/CCCc2ccccc21 | inconclusive: 17.8 µM [inhibitor, full curve, poor fit]
COc1ccc(Nc2nc(N)c([N+](=O)[O-])c(NC3CCCCC3)n2)cc1 | inconclusive: 20 µM [inhibitor, partial curve, poor fit]
O=C(Oc1ccccc1)N1CCC2(CC1)CCN(c1cccc(-c3ccccc3)c1)CC2 | inactive
CCCCCNC(=O)C(c1ccccc1F)n1c(=O)c(-c2ccco2)nc2ccccc21 (stereo unspecified) | active: 20 µM
COc1ccc(CN2C[C@@H](CO)O[C@@H](n3cnc4c(N5CCN(c6ccccc6)CC5)ncnc43)C2)cc1 | inactive
Clc1nnc(N/N=C/c2ccccc2)c2ccccc12 | inactive
Cc1cccc(-c2n[nH]c(=S)n2/N=C/c2ccco2)c1 | inconclusive: 15.8 µM [inhibitor, partial curve, poor fit]
CC(=O)Nc1ccc(S(=O)(=O)NCC(=O)NNC(=O)COc2c(C)cccc2C)cc1 | inactive
O=C(O)C[C@@H]1CCN(C(=O)c2ccccc2)C[C@@H]1CCN1C[C@@H]2C[C@H](C1)c1cccc(=O)n1C2 | inconclusive: 14.1 µM [inhibitor, full curve]
CN(Cc1ccc(C(F)(F)F)cc1)C(=O)C1CC(=O)N(Cc2ccco2)C1 (stereo unspecified) | inconclusive: 112 µM [inhibitor, single point]
C=C1N(C)c2cc([N+](=O)[O-])c(N)cc2C1(C)C | inconclusive: 7.94 µM [inhibitor, partial curve, poor fit]
CCc1cccc2c(C=O)c[nH]c12 | inactive
CSc1ncccc1C(=O)N1C[C@@H](CN2CCCCC2)[C@@H](CO)C1 | inactive
O=C(C1CC1)N1c2nc(-c3ccco3)nn2C2(CCCCC2)[C@@H]2CCCC[C@@H]21 | inconclusive: 44.7 µM [inhibitor, partial curve]
Brc1ccccc1-c1nc2c3ccccc3ncn2n1 | inactive
CCOc1cc(/C=C2/NC(=O)NC2=O)ccc1OCC(=O)O | inactive
CCOC(=O)c1ccc(Nc2ncnc3c2cnn3C)cc1 | inconclusive: 25.1 µM [inhibitor, partial curve, poor fit]
Cc1cccc(OCC(O)CN2CCCN(c3ccc(C(F)(F)F)cn3)CC2)c1 (stereo unspecified) | active: 12.6 µM
O=C(c1cc2ccccc2[nH]1)N1CCCC2(C1)NC(=O)N(Cc1ccccc1)C2=O (stereo unspecified) | inconclusive: 15.8 µM [inhibitor, full curve]
O=C1C[C@@H]2c3c(cccc3CN1Cc1ccccc1F)C[C@@H](O)[C@H]2O | inconclusive: 50.1 µM [inhibitor, partial curve, poor fit]
COc1ccc(Cl)cc1NC(=O)CCCn1nc(-n2cccc2)c2c(C)cc(C)nc21 | inconclusive: 1.41 µM [inhibitor, full curve, poor fit]
O=C(CCCc1c[nH]c2ccccc12)Nc1ccc(Br)cc1 | inconclusive: 44.7 µM [inhibitor, partial curve, poor fit]

SMILES | Potency
Cc1nnc(NC(=O)C2c3ccccc3Oc3ccccc32)s1 | inconclusive: 50.1 µM [inhibitor, single point]
Cc1ccc(S(=O)(=O)c2nc(-c3ccco3)oc2SC(C)C)cc1 | inconclusive: 50.1 µM [inhibitor, partial curve, poor fit] and active: 5.01 µM and active: 31.6 µM
C=CCOC(=O)/C(=C/c1ccco1)NC(=O)/C=C/c1ccccc1 | inconclusive: 44.7 µM [inhibitor, partial curve]
Cc1cc(C)cc(NC(=O)c2sc3nc(-c4ccccc4)cn3c2C)c1 | inconclusive: 100 µM [inhibitor, partial curve, poor fit]
C#CCN(C)C(=O)[C@@H]1CCCN1[C@@H](C(=O)NC)c1ccccc1F | inconclusive: 25.1 µM [inhibitor, full curve]
C#CCNC(=O)C1=C[C@H](c2ccc(Br)cc2)C[C@H](OCCCCO)O1 | inconclusive: 79.4 µM [inhibitor, partial curve, poor fit]
Cn1cc(SCC(=O)NCCc2ccccc2)c2ccccc21 | inactive
Cc1ccc(C2=C(O)c3ccccc3C(=O)C2=O)cc1 | inconclusive: 50.1 µM [inhibitor, partial curve, poor fit]
O=C(Nc1ccc(Br)cc1)c1ccc2c(c1)CCC2 | inconclusive: 50.1 µM [inhibitor, partial curve, poor fit]
O=c1c2ccc(Cl)cc2nc2n1CC/C2=C/c1cccc(O)c1 | inconclusive: 7.94 µM [inhibitor, full curve, poor fit]
CCc1ccc(OCCNC(=S)NC23CC4CC(CC(C4)C2)C3)cc1 | inconclusive: 44.7 µM [inhibitor, partial curve, poor fit]
CCC(=O)Nc1sc2c(c1C#N)CC(C)CC2 (stereo unspecified) | inconclusive: 89.1 µM [inhibitor, single point]
Cc1c(CCO)sc[n+]1CC(=O)OCCC12CC3CC(CC(C3)C1)C2 | inactive
O=C(c1ccc(-c2ccc([N+](=O)[O-])cc2)o1)N1CCCCC1 | inconclusive: 39.8 µM [inhibitor, partial curve, poor fit]
COCc1cc(N2CCN(C(=O)OC(C)(C)C)C[C@@H]2C)ccc1N1CC[C@H](O)C1 | inconclusive: 44.7 µM [inhibitor, partial curve]
CC(=O)N1CCc2c(sc(NC(=O)CCS(=O)(=O)c3ccc(C)cc3)c2C(N)=O)C1 | inconclusive: 89.1 µM [inhibitor, single point]
Cc1ccc(-c2nc3c(Br)cc(C)cn3c2Cc2cccc(Cl)c2)cc1 | inconclusive: 39.8 µM [inhibitor, partial curve, poor fit]
Cc1ccc2c(-c3oc4ccccc4c3NC(=O)C3CC3)cc(=O)oc2c1 | inactive
CNC(=O)/C(C#N)=C/c1c(N2CCN(c3ccc(OC)cc3)CC2)nc2c(C)cccn2c1=O | inactive
COc1cccc(C2C(C(=O)c3sc(C)nc3C)=C(O)C(=O)N2CCN2CCOCC2)c1 (stereo unspecified) | inconclusive: 31.6 µM [inhibitor, partial curve, poor fit]
CC1=Nc2cccc3cccc(c23)N1 | inconclusive: 50.1 µM [inhibitor, partial curve, poor fit]
COCC(=O)N[C@@H]1CN(Cc2cccc(OC)c2OC)C[C@H]1CO | inactive

SMILES | Potency
Nc1nc(NCc2ccco2)nc(N2CCCCCC2)c1[N+](=O)[O-] | inconclusive: 100 µM [inhibitor, partial curve, poor fit]
CCc1nc2c(sc3nc4c(cc32)COC(C)(C)C4)c(=O)n1Cc1ccco1 | inconclusive: 35.5 µM [inhibitor, single point]
Cc1cc(=O)oc2cc(OCCOC(C)C)ccc12 | inactive
O=S(=O)(NCCc1ccc(F)cc1)c1cccc2cccnc12 | inconclusive: 10 µM [inhibitor, partial curve, poor fit]
COCCCNC(=O)N1CCC2(CC1)CN(Cc1ccc(OC)cc1)C2=O | inactive
CC[n+]1c(/C=C2\C=C(C)CC(C)(C)C2)sc2ccccc21 | inconclusive: 5.62 µM [inhibitor, full curve]
CC(C)C(NC(=O)c1ccc(F)cc1)C(=O)N1CCC1 (stereo unspecified) | inactive
CNc1ccc(-c2ccccc2CO)cn1 | inconclusive: 50.1 µM [inhibitor, partial curve, poor fit]
Cc1nn(-c2ccc(F)cc2)c(Oc2ccccc2F)c1CCC(=O)N1CCSCC1 | inconclusive: 44.7 µM [inhibitor, single point]
CC(=O)C1=C(O)C(=O)N(Cc2ccccc2)C1c1cccs1 (stereo unspecified) | inconclusive: 5.01 µM [inhibitor, full curve, poor fit]
CCOC(=O)C1CCN(C(=O)CC(c2ccc(Cl)cc2)c2cn(C)c3ccccc23)CC1 (stereo unspecified) | inconclusive: 39.8 µM [inhibitor, single point]
O=C1CCCCC(Cc2ccccc2)(C(=O)O)N1 (stereo unspecified) | inconclusive: 31.6 µM [inhibitor, partial curve, poor fit]
Oc1ccc2c(c1)Oc1ncn3nc(COc4ccccc4)nc3c1C2c1cccnc1 (stereo unspecified) | inactive
O=C(CCc1ncc(-c2c(F)cccc2F)o1)Nc1ccc(Br)cc1 | inconclusive: 44.7 µM [inhibitor, partial curve, poor fit]
Cc1ccc2nc(C)cc(C(=O)NCc3ccco3)c2c1 | inconclusive: 44.7 µM [inhibitor, partial curve, poor fit]
COc1ccc2nc3oc(C(=O)N4CCN(c5ccccc5F)CC4)cc3cc2c1 | inconclusive: 126 µM [inhibitor, partial curve, poor fit]
NNc1nc2ccccc2nc1C(F)(F)F | inconclusive: 39.8 µM [inhibitor, partial curve, poor fit]
Cc1nc2c(C(=O)NCCc3ccc(Cl)cc3)c[nH]n2c(=O)c1Cc1ccccc1F | inconclusive: 50.1 µM [inhibitor, partial curve, poor fit]
Cc1ccc(S(=O)(=O)N2CCN(C(=O)CSc3nnc(C)c(=O)[nH]3)CC2)cc1 | inconclusive: 35.5 µM [inhibitor, partial curve]
Cn1nnnc1SCCNCc1ccccc1OCc1ccc(Cl)cc1 | inactive
COc1ccc2c(c1)c(CN1CCCC(c3[nH]ccc3C(N)=O)C1)cn2C (stereo unspecified) | inactive
Cc1ccc(C(=O)N/C(=C\c2ccc([N+](=O)[O-])cc2)C(=O)NCCc2ccccc2)cc1 | inactive

An excerpt from further up, for reference:
SMILES | Potency
Cc1cc(=O)oc2cc(OCCOC(C)C)ccc12 | inactive
O=S(=O)(NCCc1ccc(F)cc1)c1cccc2cccnc12 | inconclusive: 10 µM [inhibitor, partial curve, poor fit]
COCCCNC(=O)N1CCC2(CC1)CN(Cc1ccc(OC)cc1)C2=O | inactive
CC[n+]1c(/C=C2\C=C(C)CC(C)(C)C2)sc2ccccc21 | inconclusive: 5.62 µM [inhibitor, full curve]
CC(C)C(NC(=O)c1ccc(F)cc1)C(=O)N1CCC1 (stereo unspecified) | inactive

A different layout for some results above.
SMILES,Potency
COCc1cc(N2CCN(C(=O)OC(C)(C)C)C[C@@H]2C)ccc1N1CC[C@H](O)C1,"inconclusive: 44.7 µM [inhibitor, partial curve]"
CNC(=O)/C(C#N)=C/c1c(N2CCN(c3ccc(OC)cc3)CC2)nc2c(C)cccn2c1=O,inactive
